No constants are given. Whether binding was seen depends on the method and setting. In cells and extracts the contact can be indirect. Some binding calls cover weakened binding; strength is not graded here. For part of these data: Sequences can lack the tags named with a protein. Blank lines part the entries; values can stand above or below the molecule they belong to.
Tests used:
[1] = biological target: T1, FLAG-tagged BYSL (Bystin) (human) (UniProt Q13895); assay: co-IP; HEK293T cells transfected with FLAG-BYSL plasmid; lysate (1 mg total protein, precleared) immunoprecipitated with magnetic FLAG beads at 4 °C overnight; Western blot
T1 sequence: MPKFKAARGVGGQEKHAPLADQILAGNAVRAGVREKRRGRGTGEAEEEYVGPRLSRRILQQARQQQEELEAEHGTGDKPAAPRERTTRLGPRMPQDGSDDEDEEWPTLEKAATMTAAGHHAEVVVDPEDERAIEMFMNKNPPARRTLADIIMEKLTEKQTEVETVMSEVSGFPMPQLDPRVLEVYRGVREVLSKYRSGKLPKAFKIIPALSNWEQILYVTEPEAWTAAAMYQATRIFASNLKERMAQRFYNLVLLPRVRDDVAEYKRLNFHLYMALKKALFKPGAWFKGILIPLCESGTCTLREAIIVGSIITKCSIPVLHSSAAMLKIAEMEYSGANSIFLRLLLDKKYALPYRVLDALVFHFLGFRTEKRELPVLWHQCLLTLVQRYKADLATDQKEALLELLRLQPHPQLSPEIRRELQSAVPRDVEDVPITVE

Protein sequences, listed by entry. Tags and fused reporters are not part of them. Lines headed by an entry give the natural chain unless they say otherwise; changes in a name come on top.
UniProt Q9BVS4: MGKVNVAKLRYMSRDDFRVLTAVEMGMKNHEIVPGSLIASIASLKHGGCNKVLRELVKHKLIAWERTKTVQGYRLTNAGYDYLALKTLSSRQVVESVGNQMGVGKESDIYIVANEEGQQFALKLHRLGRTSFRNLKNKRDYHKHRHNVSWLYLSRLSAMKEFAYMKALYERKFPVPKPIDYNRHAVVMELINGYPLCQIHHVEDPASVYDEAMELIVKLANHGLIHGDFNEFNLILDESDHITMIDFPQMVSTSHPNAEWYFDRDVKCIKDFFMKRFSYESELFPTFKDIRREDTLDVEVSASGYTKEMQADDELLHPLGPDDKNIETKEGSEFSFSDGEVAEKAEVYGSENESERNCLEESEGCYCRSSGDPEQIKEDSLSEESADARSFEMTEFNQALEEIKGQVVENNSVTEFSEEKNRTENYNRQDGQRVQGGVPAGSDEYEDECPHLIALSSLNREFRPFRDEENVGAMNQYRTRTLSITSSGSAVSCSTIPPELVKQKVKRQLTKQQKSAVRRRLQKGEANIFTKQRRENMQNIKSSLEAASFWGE

[2] = biological target: T2, BYSL (Bystin), endogenous in U251 glioma cells (human (endogenous in U251)) (UniProt Q13895); assay: co-IP; U251 glioma cells, endogenous proteins; lysate immunoprecipitated with anti-BYSL antibody; Western blot
T2 sequence: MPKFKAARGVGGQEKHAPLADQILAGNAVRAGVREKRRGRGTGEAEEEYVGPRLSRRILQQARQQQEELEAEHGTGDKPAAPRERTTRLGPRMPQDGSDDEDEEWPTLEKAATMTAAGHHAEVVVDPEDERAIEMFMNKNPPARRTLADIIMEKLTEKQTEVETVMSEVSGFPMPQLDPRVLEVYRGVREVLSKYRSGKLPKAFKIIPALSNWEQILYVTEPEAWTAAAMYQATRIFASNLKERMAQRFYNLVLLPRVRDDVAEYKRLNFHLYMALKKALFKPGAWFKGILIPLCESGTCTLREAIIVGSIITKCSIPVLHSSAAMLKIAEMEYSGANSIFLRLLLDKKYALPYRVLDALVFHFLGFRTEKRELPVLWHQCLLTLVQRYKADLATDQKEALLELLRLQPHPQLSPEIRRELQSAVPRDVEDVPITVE

Myc-tagged RIOK2 (human) = Myc-tagged RIOK2 (human) (UniProt Q9BVS4); assay: co-IP; HEK293T cells transfected with Myc-RIOK2 plasmid; lysate immunoprecipitated with anti-Myc antibody; Western blot

- binding [1]: binds
Molecule: RIOK2, endogenous in HEK293T cells (from UniProt Q9BVS4-1 1-552)

- binding [2]: binds
Molecule: RIOK2, endogenous in U251 glioma cells (from UniProt Q9BVS4-1 1-552)

- binding (Myc-tagged RIOK2 (human)): binds
B1: BYSL (Bystin), endogenous in HEK293T cells (protein, UniProt Q13895 1-437)
chain: MPKFKAARGVGGQEKHAPLADQILAGNAVRAGVREKRRGRGTGEAEEEYVGPRLSRRILQQARQQQEELEAEHGTGDKPAAPRERTTRLGPRMPQDGSDDEDEEWPTLEKAATMTAAGHHAEVVVDPEDERAIEMFMNKNPPARRTLADIIMEKLTEKQTEVETVMSEVSGFPMPQLDPRVLEVYRGVREVLSKYRSGKLPKAFKIIPALSNWEQILYVTEPEAWTAAAMYQATRIFASNLKERMAQRFYNLVLLPRVRDDVAEYKRLNFHLYMALKKALFKPGAWFKGILIPLCESGTCTLREAIIVGSIITKCSIPVLHSSAAMLKIAEMEYSGANSIFLRLLLDKKYALPYRVLDALVFHFLGFRTEKRELPVLWHQCLLTLVQRYKADLATDQKEALLELLRLQPHPQLSPEIRRELQSAVPRDVEDVPITVE

From article PMC7877178
